# According to patent US20070010446A1, “METHODS FOR TREATING INFLAMMATION USING THYROID STIMULATING HORMONE” (ZymoGenetics, Inc., priority 2003, published 2007):
# At least one structure is not confirmed: it was looked up by name or label, or the drawing left a doubt.
# Tested on: C57BL/6 mice
# Experiment: Delayed Type Hypersensitivity (DTH), OVA ear challenge
# Type: in vivo
smiles,measurement,setting,value
"C[C@@H]1C[C@H]2[C@@H]3CCC4=CC(=O)C=C[C@]4(C)[C@@]3(F)[C@@H](O)C[C@]2(C)[C@@]1(O)C(=O)CO [Dex, Dexamethasone]","DTH reaction, ear thickness vs PBS controls (in words)","Expt 1, treatment i.p. two hours prior to OVA re-challenge, Dex […], TSH 2 mg/kg",lesser degree of ear thickness compared to controls
same,DTH reaction (in words),"Expt 2, treatment i.p. once a day days 0 to 4 (sensitization phase)",significantly inhibited the DTH reaction
same,ear swelling in response to OVA re-challenge (in words),"Expt 3, adrenalectomized (ADX) mice",reduced ear swelling
